The record followed here is paper PMC10318143 (Frontiers in Chemistry, 2023).

Some peptides are written in HELM: one residue between dots, names in brackets for other building blocks, links after the first $.

This data set can be described thus: general procedure: Fmoc solid-phase peptide synthesis; ChemMatrix Rink Amide resin (0.44 mmol/g loading); HCTU and DIPEA. To be noted: conjugation step, 220 nm.
Take PEPTIDE1{[CoA-Ac].E.E.D.L.[am]}$$$$V2.0: the “final HPLC purity” value amounted to 97.0%.

Regarding PEPTIDE1{[CoA-Ac].E.D.Q.L.[am]}$$$$V2.0, the “final HPLC purity” value was found to be 100%.

Consider PEPTIDE1{[CoA-Ac].E.E.D.I.[am]}$$$$V2.0, for which the “final HPLC purity” value is reported as 95.1%.

Consider PEPTIDE1{[CoA-Ac].P.D.E.L.[am]}$$$$V2.0, for which the “final HPLC purity” value was found to be 97.3%.

In the case of PEPTIDE1{[CoA-Ac].D.D.E.I.[am]}$$$$V2.0, the “final HPLC purity” value is given as 98.4%.

As to PEPTIDE1{[CoA-Ac].D.E.E.L.[am]}$$$$V2.0, the “final HPLC purity” value amounted to 97.9%.

For the substance PEPTIDE1{[CoA-Ac].E.D.D.I.[am]}$$$$V2.0, the “final HPLC purity” value was determined as 93.5%.

Regarding PEPTIDE1{[CoA-Ac].E.E.E.L.[am]}$$$$V2.0, the “final HPLC purity” value is 94.1%.

PEPTIDE1{[CoA-Ac].E.S.E.L.[am]}$$$$V2.0: the “final HPLC purity” value was found to be 96.8%.

For the substance PEPTIDE1{[CoA-Ac].D.E.E.I.[am]}$$$$V2.0, the “final HPLC purity” value was found to be 95.5%.

With PEPTIDE1{[CoA-Ac].E.D.E.L.[am]}$$$$V2.0, the “final HPLC purity” value is reported as 94.7%.

For the substance PEPTIDE1{[CoA-Ac].E.D.E.I.[am]}$$$$V2.0, the “final HPLC purity” value is 95.2%.
